PMC11653243, “Enhancing Phototoxicity in BODIPY‐Perylene Charge Transfer Dyads by Combined Iodination and Mesylation” (Chemistry (Weinheim an Der Bergstrasse, Germany), 2024)
“And” between values parts separate entries of the source, which are not always exact repeats. Identical values can stand only once.

What was measured:
CHO cells = test: Cellular uptake and co-localisation by confocal microscopy; type: cell-based, Chinese Hamster; conditions: for Pearson Coefficient (r) with BODIPY 493/503 / Pearson Coefficient (r) with LysoTracker Deep Red / Pearson Coefficient (r) with PyLa-C17Cer: CHO; for Pearson Coefficient (r) with BODIPY 493/503: BODIPY 493/503 2 µM, 30 min; for Pearson Coefficient (r) with LysoTracker Deep Red: LysoTracker Deep Red 100 nM, 1 h; for Pearson Coefficient (r) with PyLa-C17Cer: PyLa-C17Cer 2 µM, 2 hours
Protocol: (§1) The intracellular uptake of the BODIPY derivatives was assessed in two mammalian cell lines, CHO (non‐cancer) and MCF‐7 (cancer). […] B2P and B2PI were studied following 4 h and 17 h incubation in MCF‐7 cells with 10 μM of each BODIPY derivative. A 17 h incubation was selected to allow for adequate cell uptake of the complex, ensuring sufficient brightness for confocal imaging while minimising cell toxicity.
(§2) Across all four compounds uptake of the BODIPYs led to extremely bright and highly punctate staining from within the cells. As all of the BODIPY‐perylene probes emit minimally from aqueous media including cell culture media (Figure S20) the bright emission is attributed to localisation of the complex to non‐aqueous domains, i. e. organelle membranes or to lipid droplets (LDs). To identify which, co‐localisation studies with targeted probes were completed. CHO and MCF‐7 cells were treated with B2P, B2PI, MB2P or MB2PI and co‐stained with specific organelle markers including LD probes; PyLa−C17Cer and BODIPY 493/503, an endoplasmic reticulum stain; ER Tracker Blue‐White and a lysosomal stain; LysoTracker Deep Red. Pyla‐C17Cer was previously published and localises in both the ER and LDs.[41] Cellular uptake of B2PI was recently reported in MCF‐7 cells, though localisation was not explored.[25]
(§3) MCF‐7 and CHO cells were treated with B2P, MB2P, B2PI or MB2PI for 17 h and co‐stained with a number of dyes for co‐staining including LysoTracker Deep Red, ER Tracker Blue/White, PyLa−C17Cer, BODIPY 493/503 and H2DCFDA. Cells were imaged in phenol red free media using a Leica DMi8 confocal microscope with a 63x or 100x oil immersion lens and a heated state at 37 °C.
(§4) Uptake in Live Cell Monolayers
(§5) CHO cells were incubated in 75cm2 cell culture flasks (Corning) with DMEM/F-12 Ham medium (Sigma-Aldrich) with L-glutamine and sodium bicarbonate supplemented with 10% fetal bovine serum (FBS) (Gibco) and 1% penicillin-streptomycin (Sigma-Aldrich). MCF-7 cells were incubated in 25cm2 cell culture flasks with RPMI-1640 medium (Sigma-Aldrich) with L-glutamine and sodium bicarbonate supplemented with 10% fetal bovine serum (FBS, Gibco) and 1% penicillin-streptomycin. Cells were incubated at 37 °C with 5% CO2 and detached from the flask at 90% confluency using a 1X Trypsin-EDTA solution (Sigma-Aldrich). Cells were counted using the EVE automated cell counter (NanoEnTek) and seeded at 1 x 10^5 cells per mL in a 4 or 8 chamber µ-slide (ibidi) for cell imaging and left for 24 h at 37 °C. Cells were rinsed with 1X PBS (Gibco) and stained with B2P or B2PI at 10 µM and MB2P or MB2PI at 30 µM for 17 h. Cells were washed twice with PBS and covered with phenol red free RPMI medium (Gibco) for imaging. Live cells were imaged using a Leica SP8 confocal microscope with 63x oil immersion lens and heated stage at 37 °C.
(§6) Figure S23. Confocal imaging of 10 µM B2P in MCF-7 cells after (A-C) 4 and (D-F) 17 h […]
(§7) (1 picture or pasted object on this page, not shown here)
(§8) Figure S24. Confocal imaging of 10 µM B2PI in MCF-7 cells after (A-C) 4 and (D-F) 17 h […]
(§9) Localisation in Live Cell Monolayers
(§10) For co-localisation studies, LysoTracker Deep Red, ER Tracker Blue-White, PyLa-C17Cer or BODIPY 493/503 were added to CHO and MCF-7 cells after the 17 h incubation period with the BODIPY probes. Cells were washed twice with PBS and imaged in phenol red free media.
(§11) The BODIPY-perylene compounds were excited at their respective λabs and emission for co-localisation studies was collected from 580-640 nm, where the emission collection window was shortened depending on the λem of the BODIPY derivative being tested to ensure minimal overlap with the commercial dyes. Moreover, images were obtained by sequential sequencing with gating applied. The conditions for co-localisation studies are as follows: LysoTracker Deep Red (100 nM, 1 h) Ex 647, Em 665-685 nm; ER Tracker Blue/White (1 µM, 45 minutes)

MCF‐7 cells = test: as above; type: cell-based; conditions: for Pearson Coefficient (r) with BODIPY 493/503: BODIPY 493/503 2 µM, 30 min; for Pearson Coefficient (r) with LysoTracker Deep Red: LysoTracker Deep Red 100 nM, 1 h; for Pearson Coefficient (r) with PyLa-C17Cer: PyLa-C17Cer 2 µM, 2 hours
Protocol: as §1, §2, §3, §4, §5, §6, §7, §8, §9, §10, §11

MCF‐7 spheroids = test: Uptake in spheroids by confocal imaging; type: cell-based; conditions: 50 μM for 17 h

## CC1=C(c2ccc3c4cccc5cccc(c6cccc2c63)c54)C(C)=[N+]2C1=C(c1c(C)cc(C)cc1C)c1c(C)c(I)c(C)n1[B-]2(F)F [MB2PI]
CHO cells; CHO cells, lipid droplet probe not specified
  Pearson's coefficient for LD probe: < 0.3
CHO cells
  Pearson Coefficient (r) with BODIPY 493/503: 0.23 ± 0.04
  Pearson Coefficient (r) with LysoTracker Deep Red: 0.44 ± 0.07
  Pearson Coefficient (r) with PyLa-C17Cer: 0.33 ± 0.06
MCF‐7 cells
  Pearson Coefficient (r) with BODIPY 493/503: 0.45 ± 0.06 and 0.45
  Pearson Coefficient (r) with LysoTracker Deep Red: 0.59 ± 0.09
  Pearson Coefficient (r) with PyLa-C17Cer: 0.49 ± 0.04 and 0.49
MCF‐7 spheroids
  penetration and distribution in spheroids: not taken up throughout the spheroid as effectively as B2P and B2PI

## CC1=CC(C)=[N+]2C1=C(c1ccccc1)c1c(C)c(-c3ccc4c5cccc6cccc(c7cccc3c74)c65)c(C)n1[B-]2(F)F [B2P]
CHO cells
  Pearson Coefficient (r) with BODIPY 493/503: 0.78 ± 0.09 and 0.69±0.03
  Pearson Coefficient (r) with LysoTracker Deep Red: 0.34 ± 0.04
  Pearson Coefficient (r) with PyLa-C17Cer: 0.69 ± 0.03 and 0.78±0.09
MCF‐7 cells
  Pearson Coefficient (r) with BODIPY 493/503: 0.75 ± 0.07
  Pearson Coefficient (r) with LysoTracker Deep Red: 0.75 ± 0.11
  Pearson Coefficient (r) with PyLa-C17Cer: 0.55 ± 0.07
MCF‐7 spheroids
  penetration and distribution in spheroids: widespread distribution

## CC1=C(c2ccc3c4cccc5cccc(c6cccc2c63)c54)C(C)=[N+]2C1=C(c1c(C)cc(C)cc1C)c1c(C)cc(C)n1[B-]2(F)F [MB2P]
CHO cells
  Pearson Coefficient (r) with BODIPY 493/503: 0.70 ± 0.03
  Pearson Coefficient (r) with LysoTracker Deep Red: 0.59 ± 0.08
  Pearson Coefficient (r) with PyLa-C17Cer: 0.67 ± 0.09
MCF‐7 cells
  Pearson Coefficient (r) with BODIPY 493/503: 0.66 ± 0.11
  Pearson Coefficient (r) with LysoTracker Deep Red: 0.57 ± 0.06
  Pearson Coefficient (r) with PyLa-C17Cer: 0.67 ± 0.03
MCF‐7 spheroids
  penetration and distribution in spheroids: not taken up throughout the spheroid as effectively as B2P and B2PI

## CC1=C(I)C(C)=[N+]2C1=C(c1ccccc1)c1c(C)c(-c3ccc4c5cccc6cccc(c7cccc3c74)c65)c(C)n1[B-]2(F)F [B2PI]
CHO cells
  Pearson Coefficient (r) with LysoTracker Deep Red: 0.65 ± 0.05
  Pearson Coefficient (r) with PyLa-C17Cer: 0.65 ± 0.04
MCF‐7 cells
  Pearson Coefficient (r) with LysoTracker Deep Red: 0.71 ± 0.03
  Pearson Coefficient (r) with PyLa-C17Cer: 0.54 ± 0.05
MCF‐7 spheroids
  penetration and distribution in spheroids: widespread distribution
